Laboratory results published in patent US20260007697A1 (FUNDACI N PARA LA INVESTIGACI N M DICA APLICADA, published 2026).
No constants are given. Whether binding was seen depends on the method and setting. Some entries that bind do so weakly or less than the wild type.

By UniProt entry, the sequences of proteins in these tests, tags left out. Where a name states a change or a piece, a line headed by the entry shows the natural chain unless it says otherwise.
UniProt P11276: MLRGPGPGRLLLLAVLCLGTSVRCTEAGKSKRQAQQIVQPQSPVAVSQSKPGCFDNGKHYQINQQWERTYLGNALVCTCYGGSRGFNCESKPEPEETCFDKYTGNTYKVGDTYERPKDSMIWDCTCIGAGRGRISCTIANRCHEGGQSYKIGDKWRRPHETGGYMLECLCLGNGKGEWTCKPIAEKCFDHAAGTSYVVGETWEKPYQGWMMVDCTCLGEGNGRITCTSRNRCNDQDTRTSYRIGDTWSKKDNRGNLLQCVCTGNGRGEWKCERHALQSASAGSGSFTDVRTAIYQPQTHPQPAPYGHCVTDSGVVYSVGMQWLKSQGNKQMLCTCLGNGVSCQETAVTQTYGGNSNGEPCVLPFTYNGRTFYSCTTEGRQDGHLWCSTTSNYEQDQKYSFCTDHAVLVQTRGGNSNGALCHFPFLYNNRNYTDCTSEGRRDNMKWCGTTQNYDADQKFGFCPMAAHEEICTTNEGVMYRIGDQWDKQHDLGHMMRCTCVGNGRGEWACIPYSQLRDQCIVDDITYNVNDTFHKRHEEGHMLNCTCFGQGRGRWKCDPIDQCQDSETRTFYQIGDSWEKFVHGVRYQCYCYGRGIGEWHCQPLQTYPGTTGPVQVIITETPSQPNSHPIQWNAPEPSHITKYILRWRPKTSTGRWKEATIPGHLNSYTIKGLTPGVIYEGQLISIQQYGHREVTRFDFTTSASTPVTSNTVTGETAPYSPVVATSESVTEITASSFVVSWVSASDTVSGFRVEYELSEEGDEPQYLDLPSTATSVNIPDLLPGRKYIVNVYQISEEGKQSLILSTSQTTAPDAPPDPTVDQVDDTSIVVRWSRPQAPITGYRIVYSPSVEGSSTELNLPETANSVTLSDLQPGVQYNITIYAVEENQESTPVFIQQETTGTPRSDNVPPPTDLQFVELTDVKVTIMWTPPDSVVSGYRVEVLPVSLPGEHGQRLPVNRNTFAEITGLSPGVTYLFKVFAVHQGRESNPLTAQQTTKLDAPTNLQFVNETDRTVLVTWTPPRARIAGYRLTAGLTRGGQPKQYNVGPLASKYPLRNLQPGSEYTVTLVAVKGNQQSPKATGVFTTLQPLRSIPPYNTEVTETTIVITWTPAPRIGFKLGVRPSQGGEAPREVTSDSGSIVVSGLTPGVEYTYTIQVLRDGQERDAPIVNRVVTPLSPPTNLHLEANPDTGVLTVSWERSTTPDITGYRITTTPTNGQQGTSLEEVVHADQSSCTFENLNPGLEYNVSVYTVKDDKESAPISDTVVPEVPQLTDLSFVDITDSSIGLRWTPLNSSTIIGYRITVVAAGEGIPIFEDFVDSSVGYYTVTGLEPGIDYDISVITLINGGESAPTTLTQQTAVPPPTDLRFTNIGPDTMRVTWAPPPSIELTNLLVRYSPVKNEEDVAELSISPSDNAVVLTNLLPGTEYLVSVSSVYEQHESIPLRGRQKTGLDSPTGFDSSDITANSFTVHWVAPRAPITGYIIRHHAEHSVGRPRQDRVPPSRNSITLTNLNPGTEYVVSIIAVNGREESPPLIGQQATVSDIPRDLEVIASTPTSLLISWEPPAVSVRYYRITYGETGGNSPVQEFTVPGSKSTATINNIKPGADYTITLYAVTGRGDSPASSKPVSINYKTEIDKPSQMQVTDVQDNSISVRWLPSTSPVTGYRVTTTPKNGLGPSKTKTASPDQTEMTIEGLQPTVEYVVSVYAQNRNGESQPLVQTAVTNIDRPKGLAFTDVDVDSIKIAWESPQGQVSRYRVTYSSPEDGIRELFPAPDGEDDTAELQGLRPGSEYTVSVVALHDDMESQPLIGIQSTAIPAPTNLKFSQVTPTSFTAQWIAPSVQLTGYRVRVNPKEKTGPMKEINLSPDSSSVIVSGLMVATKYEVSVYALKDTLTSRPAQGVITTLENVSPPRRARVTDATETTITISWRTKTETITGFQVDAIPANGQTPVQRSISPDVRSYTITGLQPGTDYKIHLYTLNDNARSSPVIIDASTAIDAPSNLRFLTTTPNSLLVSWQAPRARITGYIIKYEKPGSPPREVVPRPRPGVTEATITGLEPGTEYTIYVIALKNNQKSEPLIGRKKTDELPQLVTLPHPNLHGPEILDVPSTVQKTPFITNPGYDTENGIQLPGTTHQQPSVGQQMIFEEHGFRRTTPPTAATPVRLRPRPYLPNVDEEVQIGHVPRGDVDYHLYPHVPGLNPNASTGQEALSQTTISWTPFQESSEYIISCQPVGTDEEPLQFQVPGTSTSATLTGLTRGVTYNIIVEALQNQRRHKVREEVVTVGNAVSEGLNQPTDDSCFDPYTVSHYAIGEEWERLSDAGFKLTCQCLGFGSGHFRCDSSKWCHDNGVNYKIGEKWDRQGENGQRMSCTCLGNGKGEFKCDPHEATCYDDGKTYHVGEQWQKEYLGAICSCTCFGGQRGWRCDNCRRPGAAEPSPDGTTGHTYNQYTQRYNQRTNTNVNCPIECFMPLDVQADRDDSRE
UniProt P02751: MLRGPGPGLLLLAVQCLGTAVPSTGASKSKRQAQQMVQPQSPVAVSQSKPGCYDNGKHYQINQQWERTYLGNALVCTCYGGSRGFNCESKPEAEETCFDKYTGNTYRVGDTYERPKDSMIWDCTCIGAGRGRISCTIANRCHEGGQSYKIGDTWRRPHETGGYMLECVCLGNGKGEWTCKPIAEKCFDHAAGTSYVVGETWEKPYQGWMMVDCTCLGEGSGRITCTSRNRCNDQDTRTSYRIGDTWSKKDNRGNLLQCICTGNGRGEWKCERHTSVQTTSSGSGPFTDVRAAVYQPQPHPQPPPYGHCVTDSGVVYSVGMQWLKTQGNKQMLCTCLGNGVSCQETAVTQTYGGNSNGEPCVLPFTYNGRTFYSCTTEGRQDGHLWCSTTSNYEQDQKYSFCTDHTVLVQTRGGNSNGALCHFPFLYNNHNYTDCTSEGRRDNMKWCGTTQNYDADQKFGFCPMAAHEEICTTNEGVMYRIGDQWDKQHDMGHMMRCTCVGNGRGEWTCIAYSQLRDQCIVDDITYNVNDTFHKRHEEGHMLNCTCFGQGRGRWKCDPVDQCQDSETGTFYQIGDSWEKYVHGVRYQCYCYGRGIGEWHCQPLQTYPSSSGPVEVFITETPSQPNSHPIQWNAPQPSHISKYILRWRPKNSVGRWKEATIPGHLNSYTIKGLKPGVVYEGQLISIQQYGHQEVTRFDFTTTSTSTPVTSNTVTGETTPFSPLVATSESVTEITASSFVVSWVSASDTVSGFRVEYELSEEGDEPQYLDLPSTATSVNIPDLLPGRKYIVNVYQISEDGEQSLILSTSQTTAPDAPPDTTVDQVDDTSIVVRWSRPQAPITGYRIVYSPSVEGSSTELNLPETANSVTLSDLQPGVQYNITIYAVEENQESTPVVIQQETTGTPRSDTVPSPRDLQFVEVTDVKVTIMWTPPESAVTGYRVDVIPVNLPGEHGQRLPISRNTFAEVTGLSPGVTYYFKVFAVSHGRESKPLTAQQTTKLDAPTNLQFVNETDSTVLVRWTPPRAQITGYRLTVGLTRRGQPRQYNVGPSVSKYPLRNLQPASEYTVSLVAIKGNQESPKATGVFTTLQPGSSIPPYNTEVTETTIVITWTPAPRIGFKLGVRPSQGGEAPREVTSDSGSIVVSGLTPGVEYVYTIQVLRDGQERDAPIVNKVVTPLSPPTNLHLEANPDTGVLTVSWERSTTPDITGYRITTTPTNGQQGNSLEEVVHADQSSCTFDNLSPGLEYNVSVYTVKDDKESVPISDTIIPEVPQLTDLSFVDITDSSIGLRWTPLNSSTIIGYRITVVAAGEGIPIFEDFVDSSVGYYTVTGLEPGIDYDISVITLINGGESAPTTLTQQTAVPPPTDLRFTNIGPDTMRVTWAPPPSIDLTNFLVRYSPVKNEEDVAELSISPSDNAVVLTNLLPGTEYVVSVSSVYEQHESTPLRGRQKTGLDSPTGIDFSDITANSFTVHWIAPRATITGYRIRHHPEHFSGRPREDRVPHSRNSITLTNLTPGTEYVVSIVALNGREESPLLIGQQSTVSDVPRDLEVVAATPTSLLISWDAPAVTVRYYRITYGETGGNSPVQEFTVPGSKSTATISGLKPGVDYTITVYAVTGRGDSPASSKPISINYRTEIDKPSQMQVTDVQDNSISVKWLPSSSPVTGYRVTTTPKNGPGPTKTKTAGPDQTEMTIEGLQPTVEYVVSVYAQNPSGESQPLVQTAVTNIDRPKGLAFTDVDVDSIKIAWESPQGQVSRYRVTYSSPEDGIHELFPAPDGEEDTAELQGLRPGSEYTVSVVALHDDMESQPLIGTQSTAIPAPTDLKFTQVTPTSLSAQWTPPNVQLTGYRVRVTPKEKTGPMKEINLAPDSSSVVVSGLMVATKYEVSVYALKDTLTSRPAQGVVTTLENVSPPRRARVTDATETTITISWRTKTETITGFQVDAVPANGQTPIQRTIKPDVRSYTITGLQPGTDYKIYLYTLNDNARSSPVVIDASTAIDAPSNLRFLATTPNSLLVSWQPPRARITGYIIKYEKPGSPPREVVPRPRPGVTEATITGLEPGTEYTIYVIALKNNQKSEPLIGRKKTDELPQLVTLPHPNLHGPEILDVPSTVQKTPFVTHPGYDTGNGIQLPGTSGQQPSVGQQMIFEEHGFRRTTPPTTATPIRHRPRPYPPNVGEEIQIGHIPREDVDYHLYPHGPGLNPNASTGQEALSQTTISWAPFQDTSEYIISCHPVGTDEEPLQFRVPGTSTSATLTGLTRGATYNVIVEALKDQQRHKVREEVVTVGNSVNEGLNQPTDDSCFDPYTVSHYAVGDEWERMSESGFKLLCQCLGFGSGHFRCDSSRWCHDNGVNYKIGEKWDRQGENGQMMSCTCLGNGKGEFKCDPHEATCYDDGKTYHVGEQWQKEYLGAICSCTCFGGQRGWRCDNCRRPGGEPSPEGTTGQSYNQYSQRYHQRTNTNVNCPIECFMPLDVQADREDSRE

Legend:
[1] = target: recombinant mouse EDA protein (extra-domain A of fibronectin), His-tagged (mouse) (UniProt P11276); assay: told in words at the start of Example 2; no assay named in this sentence
[2] = target: recombinant human EDA protein (extra-domain A of fibronectin), His-tagged (human) (UniProt P02751); assay: as above
[3] = target: recombinant human EDA protein (extra-domain A of fibronectin), His-tagged (human) (UniProt P02751); assay: ELISA titration, plates coated with 0 to 5 µg/ml human EDA (axis µg/ml EDAr), detection with scFv F8
[4] = target: recombinant human EDA protein (extra-domain A of fibronectin), His-tagged (human) (UniProt P02751); assay: ELISA, plates coated with human EDA, detection with scFv F8
[5] = target: recombinant mouse EDA protein (extra-domain A of fibronectin), His-tagged (mouse) (UniProt P11276); assay: ELISA, EDA coated to plates
[6] = target: recombinant mouse EDA protein (extra-domain A of fibronectin), His-tagged (mouse) (UniProt P11276); assay: ELISA, plates coated with mouse EDA, detection with scFv F8
[7] = target: recombinant mouse EDA protein (extra-domain A of fibronectin), His-tagged (mouse) (UniProt P11276); assay: ELISA titration, plates coated with 0 to 5 µg/ml mouse EDA (axis µg/ml EDAr), detection with scFv F8
[8] = target: recombinant human EDA protein (extra-domain A of fibronectin), His-tagged (human) (UniProt P02751); assay: ELISA, EDA coated to plates (human EDA recognized less well than murine EDA)

Measured: binding

B1: anti-EDA F8 scFv (purified recombinant antibody fragment) (scFv)
scFv: EVQLLESGGGLVQPGGSLRLSCAASGFTFSVMKMSWVRQAPGKGLEWVSAISGSGGSTYYADSVKGRFTISRDNSKNTLYLQMNSLRAEDTAVYYCAKSTHLYLFDYWGQGTLVTVSSGGGGSGGGGSGGGGSGGGGSEIVLTQSPGTLSLSPGERATLSCRASQSVSNAFLAWYQQKPGQAPRLLIYGASSRATGIPDRFSGSGSGTDFTLTISRLEPEDFAVYYCQQMRGRPPTFGQGTKVEIKHHHHHH
notes: Expressed in E. coli BL21(DE3) from pET20b and purified on protein A Sepharose; also called scFv F8; scFv (F8)
binds: all assays above
